Test system: db/db mice
Test: Echocardiography, body and heart weight in db/db mice
Format: in vivo
Conditions: P7C3 vs vehicle
Procedure: Echocardiography. Serial […] echocardiography was conducted under 2-3% isoflurane/oxygen anesthesia using a Visualsonic Vevo 770 system equipped with 30 MHz linear signal transducer (Toronto, Ontario, Canada). The mice were depilated as required for imaging and before placing on a 37° C. heated platform. Echo measurements were taken from at least three different cardiac cycles for each mouse. M-mode imaging from short-axis of the left ventricle (LV), using the papillary muscles for reference, was used to obtain measurements. Fractional shortening (FS %) and ejection fraction (EF %) were calculated as previously described.

SMILES: OC(CNc1ccccc1)Cn1c2ccc(Br)cc2c2cc(Br)ccc21 (centres unmarked) [P7C3, 3,6-Dibromo-a-[(phenylamino)methyl]-9H-carbazole-9-ethanol]
- body weight: no alterations
- left ventricular heart weight: no alterations

From patent US20220370636A1, “NICOTINAMIDE ADENINE DINUCLEOTIDE ACTIVATOR AND USE THEREOF” (University of South Florida, priority 2021, published 2022)
